The values below come from publication PMC6527222 (PLoS ONE, 2019).

The test deals with JB6 P+ cells. Kind of test: Anchorage-independent growth assay in soft agar (EGF-induced JB6 P+ colony formation). In kind it is cell-based. Particulars: Mus musculus, 336 h, 10 ng/mL EGF, 14 days; negative log value. The method, then:
Ten ng/mL EGF was used to promote the anchorage-independent growth of JB6 cells. […] Plates were incubated at 37°C, 5% CO2 for 14 days. Colonies with greater than ten cells were counted manually under a microscope. […] Normalization allowed for comparison of data over a range of JB6 P+ cell cultures, passages, and experimental time for the shRNA studies, as well as control for variation in the EGF response, and importantly allowed for a direct comparison to all concentration-response experiments including the toxicity assays. Data are expressed as mean ± SD and were analyzed using GraphPad Prism version 7.02 (La Jolla, CA). All group sizes were determined via previous studies to provide statistically meaningful data. […] Additionally, not all GraphPad Prism fitted data was appropriate as the predicted bottom of the curve or IC50 was calculated as large negative values, which is impossible for cell counts, and thus the IC50 could not be used to compare to proper sigmoidal concentration-response curves. […] The I[…]*PSD is expressed in x-axis units (log [M]) as is an IC50 and it represents the first concentration where it is expected to observe a statistical decrease in the measured signal. […] Using the formula provided by GraphPad Prism or a straight line for the point-to-point graphs, the X-axis value for point Y was determined. […]

SMILES strings stand for the structures.

`CC(C)NCC(O)COc1cccc2ccccc12` (stereo not shown) [Propranolol]: the IC50 – broadly, the concentration that gives 50% inhibition – was 9.33 µM.
